According to paper PMC11269292:
No constants are given. Whether binding was seen depends on the method and setting. In cells and extracts the contact can be indirect. Some binding calls cover weakened binding; strength is not graded here. Tags and fused reporters may be left off the sequences shown.

By UniProt entry, the sequences of proteins in these tests, tags left out.
UniProt Q15165: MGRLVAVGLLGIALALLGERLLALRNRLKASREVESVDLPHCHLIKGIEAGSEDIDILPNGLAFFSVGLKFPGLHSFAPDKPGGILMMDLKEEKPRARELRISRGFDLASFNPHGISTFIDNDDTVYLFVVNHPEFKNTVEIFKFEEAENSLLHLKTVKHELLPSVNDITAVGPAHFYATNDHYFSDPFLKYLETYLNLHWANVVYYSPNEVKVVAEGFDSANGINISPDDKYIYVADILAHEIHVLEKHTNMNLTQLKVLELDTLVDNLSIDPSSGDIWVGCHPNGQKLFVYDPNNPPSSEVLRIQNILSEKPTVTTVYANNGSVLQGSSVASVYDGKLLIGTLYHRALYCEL

Target: T1, ASGR1-3×Flag (asialoglycoprotein receptor 1, from pEF1a-ASGR1-3×Flag-IRES-GFP) (human) (UniProt P07306)
T1 sequence: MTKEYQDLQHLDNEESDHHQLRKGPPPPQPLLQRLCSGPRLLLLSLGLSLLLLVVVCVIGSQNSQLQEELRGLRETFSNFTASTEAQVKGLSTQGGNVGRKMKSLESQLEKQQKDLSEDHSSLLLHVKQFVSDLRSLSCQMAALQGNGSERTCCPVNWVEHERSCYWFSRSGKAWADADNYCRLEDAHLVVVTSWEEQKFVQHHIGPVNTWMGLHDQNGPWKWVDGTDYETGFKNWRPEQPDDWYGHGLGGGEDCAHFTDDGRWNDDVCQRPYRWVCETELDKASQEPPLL
Test: co-IP; HEK293T co-transfected with HA-tagged PON2 (or its truncations) and Flag-tagged ASGR1; precipitated with Flag antibody (ASGR1 as bait); western blot for PON2 and ASGR1

- binding: binds
Substance: PON2-3×HA (paraoxonase-2, from pEF1a-PON2-3×HA-SV40-Puro) (from UniProt Q15165 1-354)
